PubChem BioAssay AID652272 – Drosophila RNAi Screening Center, 2013

Screen: 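Finding fly genes that regulate Hedgehog signal transduction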 (primary screen)
Cell system: Drosophila clone 8 (Cl8) cells
Reagents: long dsRNA against Drosophila genes
Detection: 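Plate reader light from a firefly reporter under a ptc promoter fragment that responds to Hedgehog, with Renilla light as transfection reference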
Reading the numbers: firefly Hh reporter signal: higher = more ptc reporter light; Renilla reference signal: higher = more Renilla control light
Rule for the call: 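Hit when the z-score averaged over two replicates is under -2 or over +3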
Meaning of the calls: active = hit: reporter lowered or raised; inactive = not a hit
The screen tested about 21,000 reagents; below is an unselected part of those that have a named target and a result. Of all reagents, 503 (2.4%) got an active call. 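Raw plate light values, not normalised; calls rest on replicate z-scores that were not deposited; hits include reporter decreases as well as increases.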 Not stated in the record: the amount of reagent, the time to read-out.

For per the deposit lists firefly Hh reporter signal, replicate 1 = 51122; firefly Hh reporter signal, replicate 2 = 2.39e5; Renilla reference signal, replicate 1 = 1994; Renilla reference signal, replicate 2 = 9478; inactive.
GstO1 gave firefly Hh reporter signal, replicate 1 = 31008; firefly Hh reporter signal, replicate 2 = 65392; Renilla reference signal, replicate 1 = 3600; Renilla reference signal, replicate 2 = 4765; inactive.
Against CG7985, the values are firefly Hh reporter signal, replicate 1 = 1.42e5; firefly Hh reporter signal, replicate 2 = 1.33e5; Renilla reference signal, replicate 1 = 6100; Renilla reference signal, replicate 2 = 5074; inactive.
After knock-down of lms, the record shows firefly Hh reporter signal, replicate 1 = 73760; firefly Hh reporter signal, replicate 2 = 42883; Renilla reference signal, replicate 1 = 2410; Renilla reference signal, replicate 2 = 3264; inactive.
Silencing of put came out at: firefly Hh reporter signal, replicate 1 = 95988; firefly Hh reporter signal, replicate 2 = 69232; Renilla reference signal, replicate 1 = 3833; Renilla reference signal, replicate 2 = 2615; inactive.
elB gave firefly Hh reporter signal, replicate 1 = 1.90e5; firefly Hh reporter signal, replicate 2 = 71894; Renilla reference signal, replicate 1 = 4428; Renilla reference signal, replicate 2 = 6824; inactive.

Limited to “firefly Hh reporter signal, replicate 1” (2 entries from above):
per = 51122
GstO1 = 31008

The listing continues:
After knock-down of Dip-C the results were firefly Hh reporter signal, replicate 1 = 1.17e5; firefly Hh reporter signal, replicate 2 = 79383; Renilla reference signal, replicate 1 = 4771; Renilla reference signal, replicate 2 = 3216; inactive.
With knock-down of Cse1, the screen gave firefly Hh reporter signal, replicate 1 = 34264; firefly Hh reporter signal, replicate 2 = 26727; Renilla reference signal, replicate 1 = 1717; Renilla reference signal, replicate 2 = 1385; inactive.
eIF3m gave firefly Hh reporter signal, replicate 1 = 54845; firefly Hh reporter signal, replicate 2 = 37909; Renilla reference signal, replicate 1 = 2012; Renilla reference signal, replicate 2 = 1680; inactive.
After knock-down of CG10237 the results were firefly Hh reporter signal, replicate 1 = 1.16e5; firefly Hh reporter signal, replicate 2 = 93395; Renilla reference signal, replicate 1 = 4249; Renilla reference signal, replicate 2 = 3724; inactive.
With knock-down of Nazo, the screen gave firefly Hh reporter signal, replicate 1 = 61192; firefly Hh reporter signal, replicate 2 = 1.02e5; Renilla reference signal, replicate 1 = 2570; Renilla reference signal, replicate 2 = 3592; inactive.
Knock-down of CG13144 resulted in: firefly Hh reporter signal, replicate 1 = 76276; firefly Hh reporter signal, replicate 2 = 67488; Renilla reference signal, replicate 1 = 2420; Renilla reference signal, replicate 2 = 6108; inactive.
For SP1173, the entry reads firefly Hh reporter signal, replicate 1 = 47017; firefly Hh reporter signal, replicate 2 = 55668; Renilla reference signal, replicate 1 = 2306; Renilla reference signal, replicate 2 = 2034; inactive.
After knock-down of bisc, the record shows firefly Hh reporter signal, replicate 1 = 99735; firefly Hh reporter signal, replicate 2 = 71024; Renilla reference signal, replicate 1 = 4160; Renilla reference signal, replicate 2 = 3140; inactive.
